Results published in the supplement of paper PMC10849652.
Some of the results follow.

The chains behind the UniProt entries cited, without tags or fusion partners. Where a name states a change or a piece, a line headed by the entry shows the natural chain unless it says otherwise.
UniProt Q9Y446: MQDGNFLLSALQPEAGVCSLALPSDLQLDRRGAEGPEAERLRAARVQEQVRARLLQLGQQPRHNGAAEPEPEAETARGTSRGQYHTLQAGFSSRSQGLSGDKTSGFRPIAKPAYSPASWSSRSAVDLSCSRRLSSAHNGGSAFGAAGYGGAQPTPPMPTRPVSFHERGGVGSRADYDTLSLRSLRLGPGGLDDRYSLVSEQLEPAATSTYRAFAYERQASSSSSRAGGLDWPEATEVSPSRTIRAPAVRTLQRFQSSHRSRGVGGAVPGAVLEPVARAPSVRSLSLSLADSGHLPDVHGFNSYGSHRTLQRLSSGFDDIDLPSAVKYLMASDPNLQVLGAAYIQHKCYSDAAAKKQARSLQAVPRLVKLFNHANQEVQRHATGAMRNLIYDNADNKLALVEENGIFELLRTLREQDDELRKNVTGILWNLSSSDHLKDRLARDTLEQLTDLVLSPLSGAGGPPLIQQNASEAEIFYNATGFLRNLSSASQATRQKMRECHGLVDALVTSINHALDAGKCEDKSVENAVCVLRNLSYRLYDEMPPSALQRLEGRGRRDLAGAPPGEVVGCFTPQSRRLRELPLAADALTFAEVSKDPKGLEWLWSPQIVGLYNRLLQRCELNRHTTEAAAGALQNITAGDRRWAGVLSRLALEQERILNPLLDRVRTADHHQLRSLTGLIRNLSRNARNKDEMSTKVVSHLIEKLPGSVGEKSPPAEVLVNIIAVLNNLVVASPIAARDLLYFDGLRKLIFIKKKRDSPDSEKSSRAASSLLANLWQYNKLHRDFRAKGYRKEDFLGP
UniProt Q969N2: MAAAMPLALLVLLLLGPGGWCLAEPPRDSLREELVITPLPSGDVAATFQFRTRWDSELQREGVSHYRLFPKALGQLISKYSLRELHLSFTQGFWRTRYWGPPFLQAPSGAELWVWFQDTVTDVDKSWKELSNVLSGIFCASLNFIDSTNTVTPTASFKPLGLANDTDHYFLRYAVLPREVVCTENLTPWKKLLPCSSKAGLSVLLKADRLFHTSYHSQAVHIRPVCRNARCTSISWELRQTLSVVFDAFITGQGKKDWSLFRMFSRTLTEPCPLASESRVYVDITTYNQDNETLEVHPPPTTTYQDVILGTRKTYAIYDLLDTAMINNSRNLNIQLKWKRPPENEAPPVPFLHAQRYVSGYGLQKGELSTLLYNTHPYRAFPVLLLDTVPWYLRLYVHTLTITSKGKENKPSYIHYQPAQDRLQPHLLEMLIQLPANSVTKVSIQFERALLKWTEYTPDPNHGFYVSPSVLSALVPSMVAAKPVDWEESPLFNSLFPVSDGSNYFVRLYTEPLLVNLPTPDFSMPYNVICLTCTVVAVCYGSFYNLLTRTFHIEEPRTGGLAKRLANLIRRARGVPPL
UniProt Q86T03: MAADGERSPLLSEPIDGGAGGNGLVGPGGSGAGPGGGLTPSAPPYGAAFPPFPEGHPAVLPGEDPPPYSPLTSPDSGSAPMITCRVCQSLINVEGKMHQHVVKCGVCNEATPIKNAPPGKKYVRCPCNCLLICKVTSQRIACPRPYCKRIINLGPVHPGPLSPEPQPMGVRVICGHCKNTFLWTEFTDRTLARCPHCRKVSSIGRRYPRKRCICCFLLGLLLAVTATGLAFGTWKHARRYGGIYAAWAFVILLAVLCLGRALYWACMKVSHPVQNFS
UniProt Q99570, whole entry, looked up: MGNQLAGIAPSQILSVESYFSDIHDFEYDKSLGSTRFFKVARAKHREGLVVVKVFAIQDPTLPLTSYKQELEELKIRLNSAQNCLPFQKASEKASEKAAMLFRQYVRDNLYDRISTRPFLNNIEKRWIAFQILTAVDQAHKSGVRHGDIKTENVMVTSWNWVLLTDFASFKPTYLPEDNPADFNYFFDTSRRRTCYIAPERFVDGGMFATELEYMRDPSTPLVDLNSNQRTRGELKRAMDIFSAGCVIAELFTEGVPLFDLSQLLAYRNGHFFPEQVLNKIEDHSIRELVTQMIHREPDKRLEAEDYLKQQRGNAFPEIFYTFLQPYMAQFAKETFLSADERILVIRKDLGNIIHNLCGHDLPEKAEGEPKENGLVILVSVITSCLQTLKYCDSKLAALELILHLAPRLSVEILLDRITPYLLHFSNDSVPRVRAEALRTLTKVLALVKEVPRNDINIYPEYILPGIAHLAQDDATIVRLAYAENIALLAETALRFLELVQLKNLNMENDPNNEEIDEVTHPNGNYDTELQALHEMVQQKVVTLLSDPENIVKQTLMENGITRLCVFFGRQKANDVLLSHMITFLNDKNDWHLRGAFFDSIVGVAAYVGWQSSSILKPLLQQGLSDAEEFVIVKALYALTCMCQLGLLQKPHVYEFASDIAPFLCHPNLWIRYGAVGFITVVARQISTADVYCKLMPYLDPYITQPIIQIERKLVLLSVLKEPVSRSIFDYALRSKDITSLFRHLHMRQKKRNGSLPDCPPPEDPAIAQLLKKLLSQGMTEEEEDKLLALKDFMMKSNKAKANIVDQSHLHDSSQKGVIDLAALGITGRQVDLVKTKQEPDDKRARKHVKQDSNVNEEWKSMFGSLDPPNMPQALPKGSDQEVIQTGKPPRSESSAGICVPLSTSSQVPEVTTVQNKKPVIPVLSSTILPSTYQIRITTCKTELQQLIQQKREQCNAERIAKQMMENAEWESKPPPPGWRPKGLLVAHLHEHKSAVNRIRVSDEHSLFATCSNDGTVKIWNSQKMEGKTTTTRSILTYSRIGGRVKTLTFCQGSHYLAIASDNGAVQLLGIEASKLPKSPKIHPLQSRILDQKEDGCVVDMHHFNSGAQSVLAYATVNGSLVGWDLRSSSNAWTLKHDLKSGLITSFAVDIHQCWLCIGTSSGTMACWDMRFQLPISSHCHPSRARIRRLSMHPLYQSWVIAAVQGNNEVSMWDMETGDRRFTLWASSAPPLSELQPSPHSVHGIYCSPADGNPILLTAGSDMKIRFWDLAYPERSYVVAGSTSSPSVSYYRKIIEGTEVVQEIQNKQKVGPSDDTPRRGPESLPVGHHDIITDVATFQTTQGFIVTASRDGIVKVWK
UniProt P30613: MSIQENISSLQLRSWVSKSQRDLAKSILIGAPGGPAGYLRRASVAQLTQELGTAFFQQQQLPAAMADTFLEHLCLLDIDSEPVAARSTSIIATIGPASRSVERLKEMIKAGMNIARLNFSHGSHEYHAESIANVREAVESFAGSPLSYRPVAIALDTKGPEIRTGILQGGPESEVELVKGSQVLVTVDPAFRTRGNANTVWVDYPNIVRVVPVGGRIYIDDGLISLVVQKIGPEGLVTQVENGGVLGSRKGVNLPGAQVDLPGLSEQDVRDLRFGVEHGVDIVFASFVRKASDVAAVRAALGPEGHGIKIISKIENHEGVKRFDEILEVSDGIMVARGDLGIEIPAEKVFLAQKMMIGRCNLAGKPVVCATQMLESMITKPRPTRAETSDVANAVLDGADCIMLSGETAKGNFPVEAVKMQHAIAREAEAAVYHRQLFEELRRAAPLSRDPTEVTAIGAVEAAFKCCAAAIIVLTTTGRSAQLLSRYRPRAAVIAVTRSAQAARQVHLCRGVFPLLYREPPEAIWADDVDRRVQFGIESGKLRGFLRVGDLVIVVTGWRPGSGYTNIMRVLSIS
UniProt P42336, whole entry, looked up: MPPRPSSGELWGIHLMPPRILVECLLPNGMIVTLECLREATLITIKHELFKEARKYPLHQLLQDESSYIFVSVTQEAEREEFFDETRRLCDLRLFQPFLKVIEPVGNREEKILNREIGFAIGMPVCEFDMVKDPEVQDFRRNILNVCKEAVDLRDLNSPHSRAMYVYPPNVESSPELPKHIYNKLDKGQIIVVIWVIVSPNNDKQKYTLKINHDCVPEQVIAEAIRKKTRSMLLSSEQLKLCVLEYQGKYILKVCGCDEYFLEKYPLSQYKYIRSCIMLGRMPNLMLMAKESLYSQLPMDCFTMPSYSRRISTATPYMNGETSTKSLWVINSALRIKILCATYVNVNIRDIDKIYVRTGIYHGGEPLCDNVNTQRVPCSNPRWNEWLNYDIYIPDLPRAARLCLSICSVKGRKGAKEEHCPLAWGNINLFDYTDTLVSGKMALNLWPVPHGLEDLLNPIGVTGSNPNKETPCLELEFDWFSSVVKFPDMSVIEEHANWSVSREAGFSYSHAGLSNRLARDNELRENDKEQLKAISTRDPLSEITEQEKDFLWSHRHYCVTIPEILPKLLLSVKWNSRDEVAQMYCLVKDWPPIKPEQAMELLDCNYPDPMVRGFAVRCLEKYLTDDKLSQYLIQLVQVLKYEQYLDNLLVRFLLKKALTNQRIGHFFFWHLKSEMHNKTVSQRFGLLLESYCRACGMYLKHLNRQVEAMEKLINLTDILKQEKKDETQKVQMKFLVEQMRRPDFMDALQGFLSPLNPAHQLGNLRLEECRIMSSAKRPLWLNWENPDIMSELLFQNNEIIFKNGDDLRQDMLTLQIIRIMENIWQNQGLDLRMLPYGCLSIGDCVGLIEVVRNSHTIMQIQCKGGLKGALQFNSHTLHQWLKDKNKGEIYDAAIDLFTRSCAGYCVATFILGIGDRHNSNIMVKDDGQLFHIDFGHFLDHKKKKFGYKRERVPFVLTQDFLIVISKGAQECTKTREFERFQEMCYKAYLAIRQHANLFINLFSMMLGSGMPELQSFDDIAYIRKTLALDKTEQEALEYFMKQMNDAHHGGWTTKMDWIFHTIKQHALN
UniProt O15173: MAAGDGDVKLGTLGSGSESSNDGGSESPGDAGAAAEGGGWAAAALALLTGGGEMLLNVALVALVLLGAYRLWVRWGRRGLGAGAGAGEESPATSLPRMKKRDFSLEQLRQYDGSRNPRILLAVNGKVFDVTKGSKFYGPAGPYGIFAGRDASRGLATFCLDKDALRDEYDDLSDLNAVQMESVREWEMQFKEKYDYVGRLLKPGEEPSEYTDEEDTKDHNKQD
UniProt Q13492: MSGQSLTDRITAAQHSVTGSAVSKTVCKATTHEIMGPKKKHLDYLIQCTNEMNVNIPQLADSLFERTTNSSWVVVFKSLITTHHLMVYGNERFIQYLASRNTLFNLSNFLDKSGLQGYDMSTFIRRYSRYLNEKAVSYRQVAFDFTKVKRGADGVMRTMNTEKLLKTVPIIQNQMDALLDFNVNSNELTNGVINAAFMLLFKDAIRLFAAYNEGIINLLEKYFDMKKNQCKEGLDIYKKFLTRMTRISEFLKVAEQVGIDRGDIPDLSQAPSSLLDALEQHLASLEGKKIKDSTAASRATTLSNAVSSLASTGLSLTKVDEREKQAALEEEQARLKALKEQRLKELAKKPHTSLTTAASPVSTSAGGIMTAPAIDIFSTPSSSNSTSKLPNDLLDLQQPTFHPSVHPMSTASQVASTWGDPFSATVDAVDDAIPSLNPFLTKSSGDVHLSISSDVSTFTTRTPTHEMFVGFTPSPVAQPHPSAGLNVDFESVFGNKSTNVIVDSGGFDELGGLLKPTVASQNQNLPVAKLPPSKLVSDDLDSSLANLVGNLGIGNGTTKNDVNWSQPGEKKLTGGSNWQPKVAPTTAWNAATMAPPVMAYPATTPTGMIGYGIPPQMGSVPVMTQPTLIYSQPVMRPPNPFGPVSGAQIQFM
UniProt Q9BUL5: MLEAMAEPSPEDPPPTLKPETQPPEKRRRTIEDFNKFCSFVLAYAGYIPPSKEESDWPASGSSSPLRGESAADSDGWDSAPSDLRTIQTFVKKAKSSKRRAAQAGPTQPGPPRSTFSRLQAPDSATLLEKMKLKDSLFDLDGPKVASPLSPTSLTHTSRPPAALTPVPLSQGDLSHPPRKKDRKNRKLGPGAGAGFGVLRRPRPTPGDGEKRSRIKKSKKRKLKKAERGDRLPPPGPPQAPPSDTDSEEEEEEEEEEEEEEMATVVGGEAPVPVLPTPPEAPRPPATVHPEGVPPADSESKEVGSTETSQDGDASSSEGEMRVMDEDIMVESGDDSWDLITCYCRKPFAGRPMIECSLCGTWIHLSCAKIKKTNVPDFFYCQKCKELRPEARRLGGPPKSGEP
UniProt A6NDG6: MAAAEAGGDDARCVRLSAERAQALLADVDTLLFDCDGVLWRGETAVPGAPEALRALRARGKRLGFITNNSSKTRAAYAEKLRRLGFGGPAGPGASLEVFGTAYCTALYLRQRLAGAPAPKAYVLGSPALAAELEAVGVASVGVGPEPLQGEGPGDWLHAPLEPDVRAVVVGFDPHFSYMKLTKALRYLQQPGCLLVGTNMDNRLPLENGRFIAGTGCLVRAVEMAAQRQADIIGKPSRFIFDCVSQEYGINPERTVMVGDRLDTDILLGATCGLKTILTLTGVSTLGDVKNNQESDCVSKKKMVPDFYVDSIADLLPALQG
UniProt Q99623, whole entry, looked up: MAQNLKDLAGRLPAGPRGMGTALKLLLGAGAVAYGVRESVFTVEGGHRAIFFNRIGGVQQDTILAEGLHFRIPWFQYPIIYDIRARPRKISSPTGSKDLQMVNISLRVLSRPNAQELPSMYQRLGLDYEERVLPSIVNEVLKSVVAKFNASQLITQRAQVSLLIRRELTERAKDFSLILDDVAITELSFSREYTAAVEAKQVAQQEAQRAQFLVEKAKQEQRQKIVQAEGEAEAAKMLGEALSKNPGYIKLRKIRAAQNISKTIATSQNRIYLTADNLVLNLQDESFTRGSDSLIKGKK

How the values were obtained:
Assay in all cases: log2 fold change, soluble protein after heating vs DMSO (PISA); higher = thermal stabilisation; K562 lysate, 10 uM; active = over 0.2 and 3.5 SD of the protein, either way, in both replicates (recomputed)
erlotinib = compound: C#Cc1cccc(Nc2ncnc3cc(OCCOC)c(OCCOC)cc23)c1 [erlotinib]
Summary of the method: (§1)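 Dounce homogenisation of K562 pellets in PBS pH 7.4 with 1 mM MgCl2 produced a crude extract, used at 1 mg/mL protein. Exposure to 10 μM compound lasted 30 min, and aliquots were then heated for 3 min across 48°C-58°C, pooled and brought to 0.5% NP-40 at 4°C. The supernatant after 21,000xg for 90 min was quantified by TMTpro 16plex LC-MS/MS with channel sums equalised. Duplicate values are given as log-two fold change in thermal stability relative to solvent controls.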

[1] = compound: C/C(=N\NC(=O)C1=CC(=CC=C1)S(=O)(=O)N2CCOCC2)/C3=C(C=CC(=C3)Cl)O
Summary of the method: as §1

[2] = compound: C1=CC(=CC=C1C2=NC3=C(N2)C=C(C=C3)C(=O)N)OC4=CC=C(C=C4)Cl
Summary of the method: as §1

[3] = compound: C1=CC2=C(C=CC(=C2)/C=C\3/C(=O)NC(=NCC4=CC=CS4)S3)N=C1
Summary of the method: as §1

[4] = compound: C1=CC2=NC=CN=C2C=C1/C=C/3\C(=O)NC(=O)S3
Summary of the method: as §1

[5] = compound: C1=CC=C(C=C1)C2=NC(=C(N2)C3=CC=NC=C3)C4=CC(=C(C=C4)Cl)O
Summary of the method: as §1

[6] = compound: C1=CC=C2C(=C1)C3=NNC4=CC=CC(=C43)C2=O
Summary of the method: as §1

[7] = compound: C1CCN(C1)C(=O)NC2=CC=CC(=C2)NC3=NC=C(C(=N3)NCCC4=CN=CN4)Br
Summary of the method: as §1

[8] = compound: C1CN(CCC1(CC2=CC=C(C=C2)Cl)N)C3=NC=NC4=C3C=CN4
Summary of the method: as §1

IRAK-1-4 Inhibitor I = compound: C1COCCN1CCN2C3=CC=CC=C3N=C2NC(=O)C4=CC(=CC=C4)[N+](=O)[O-] [IRAK-1-4 Inhibitor I]
Summary of the method: as §1

ibrutinib = compound: C=CC(=O)N1CCC[C@@H](n2nc(-c3ccc(Oc4ccccc4)cc3)c3c(N)ncnc32)C1 [ibrutinib]
Summary of the method: as §1

[9] = compound: CC(=O)c1cnc2ccc(-c3cc(Cl)c(O)c(Cl)c3)nc2c1N[C@H]1CC[C@H](CN(C)C)CC1
Summary of the method: as §1

ralimetinib = compound: CC(C)(C)Cn1c(N)nc2ccc(-c3[nH]c(C(C)(C)C)nc3-c3ccc(F)cc3)nc21 [ralimetinib]
Summary of the method: as §1

[10] = compound: CC(C)(O)CC(=O)NCCn1ccc2ncnc(Nc3ccc(Oc4cccc(C(F)(F)F)c4)c(Cl)c3)c21
Summary of the method: as §1

[11] = compound: CC(C)C1=C2N=C(C=C(N2N=C1)NCC3=CC=CC=C3)NCCCCCCN
Summary of the method: as §1

[12] = compound: CC1=C(C(CC(=O)N1)C2=CC=C(C=C2)C(F)(F)F)C(=O)NC3=C(C=C4C(=C3)C=NN4)F
Summary of the method: as §1

[13] = compound: CC1=C(C2=C(C=C1)C(=O)C3=CC=CC=C3N2CCCN)C
Summary of the method: as §1

[14] = compound: CC1=C(C=C(C=C1)NC(=O)C2=CC(=CC=C2)C(C)(C)C#N)NC3=CC4=C(C=C3)N=CN(C4=O)C
Summary of the method: as §1

[15] = compound: CC1=C(C=C(C=C1)NC(=O)C2=CC(=CC=C2)N(C)C)NC(=O)C3=CC=C(C=C3)O
Summary of the method: as §1

[16] = compound: CC1=CC=C(C=C1)SC2=C3C=C(SC3=CN=C2)C(=O)N
Summary of the method: as §1

Measured: log2 fold change

PKP3 isoform 2 (UniProt Q9Y446)
inactive: erlotinib 0.063 | [1] -0.011 | [2] 0.042 | [3] 0.009 | [4] 0.006 | [5] -0.011 | [6] -0.02 | [7] -0.011 | [8] -0.013 | IRAK-1-4 Inhibitor I 0.015 | ibrutinib 0.005 | [9] -0.022 | ralimetinib -0.028 | [10] 0.009 | [11] -0.006 | [12] 0.014 | [13] 0.021 | [14] 0.004 | [15] -0.019 | [16] 0.052

PLCB3 (UniProt Q01970)
inactive: erlotinib -0.023 | [1] 0.048 | [2] -0.012 | [3] -0.001 | [4] -0.021 | [5] -0.013 | [6] -0.021 | [7] -0.025 | [8] 0.02 | IRAK-1-4 Inhibitor I -0.03 | ibrutinib 0.011 | [9] 0.013 | ralimetinib -0.01 | [10] -0.02 | [11] -0.01 | [12] -0.02 | [13] -0.002 | [14] -0.007 | [15] 0.007 | [16] 0.029

PIGT (UniProt Q969N2)
inactive: erlotinib 0.01 | [1] -0.022 | [2] -0.104 | [3] -0.013 | [4] 0.01 | [5] -0.014 | [6] -0.108 | [7] 0.031 | [8] 0.015 | IRAK-1-4 Inhibitor I 0.021 | ibrutinib 0.048 | [9] 0.059 | ralimetinib -0.008 | [10] -0.079 | [11] -0.021 | [12] 0.029 | [13] 0.004 | [14] -0.022 | [15] 0.009 | [16] 0.014

Two successive records from above, for reference:
PLCB3 (UniProt Q01970)
inactive: erlotinib -0.023 | [1] 0.048 | [2] -0.012 | [3] -0.001 | [4] -0.021 | [5] -0.013 | [6] -0.021 | [7] -0.025 | [8] 0.02 | IRAK-1-4 Inhibitor I -0.03 | ibrutinib 0.011 | [9] 0.013 | ralimetinib -0.01 | [10] -0.02 | [11] -0.01 | [12] -0.02 | [13] -0.002 | [14] -0.007 | [15] 0.007 | [16] 0.029

PIGT (UniProt Q969N2)
inactive: erlotinib 0.01 | [1] -0.022 | [2] -0.104 | [3] -0.013 | [4] 0.01 | [5] -0.014 | [6] -0.108 | [7] 0.031 | [8] 0.015 | IRAK-1-4 Inhibitor I 0.021 | ibrutinib 0.048 | [9] 0.059 | ralimetinib -0.008 | [10] -0.079 | [11] -0.021 | [12] 0.029 | [13] 0.004 | [14] -0.022 | [15] 0.009 | [16] 0.014

(next part)

PIP4P1 isoform 2 (UniProt Q86T03)
inactive: erlotinib 0.008 | [1] -0.051 | [2] 0.084 | [3] 0.042 | [4] -0.033 | [5] 0.005 | [6] -0.038 | [7] -0.005 | [8] -0.033 | IRAK-1-4 Inhibitor I 0.025 | ibrutinib -0.036 | [9] 0.008 | ralimetinib -0.016 | [10] -0.026 | [11] -0.015 | [12] -0.012 | [13] 0.049 | [14] 0.054 | [15] 0.042 | [16] -0.024

PIK3R4 (UniProt Q99570)
inactive: erlotinib 0.065 | [1] -0.029 | [2] -0.037 | [3] 0.023 | [4] 0.044 | [5] 0.014 | [6] 0.006 | [7] -0.017 | [8] 0.016 | IRAK-1-4 Inhibitor I 0.046 | ibrutinib -0.036 | [9] 0.009 | ralimetinib 0.011 | [10] -0.03 | [11] -0.048 | [12] 0 | [13] -0.014 | [14] 0.012 | [15] -0.008 | [16] 0.011

PKLR (UniProt P30613)
inactive: erlotinib -0.017 | [1] -0.029 | [2] 0.038 | [3] -0.014 | [4] 0.009 | [5] -0.01 | [6] 0.009 | [7] 0.007 | [8] 0.008 | IRAK-1-4 Inhibitor I 0.01 | ibrutinib 0.013 | [9] 0.007 | ralimetinib -0.022 | [10] -0.018 | [11] -0.016 | [12] -0.018 | [13] 0.009 | [14] 0.008 | [15] -0.011 | [16] -0.003

PHB (UniProt P35232)
inactive: erlotinib -0.008 | [1] -0.023 | [2] -0.01 | [3] -0.015 | [4] -0.066 | [5] -0.022 | [6] 0.025 | [7] 0.01 | [8] -0.008 | IRAK-1-4 Inhibitor I 0.012 | ibrutinib 0.012 | [9] -0.003 | ralimetinib 0.004 | [10] 0.026 | [11] 0.016 | [12] -0.021 | [13] 0.013 | [14] -0.007 | [15] -0.025 | [16] 0.015

PIK3CA (UniProt P42336)
inactive: erlotinib -0.015 | [1] 0.066 | [2] 0.005 | [3] 0.021 | [4] 0.019 | [5] -0.086 | [6] -0.037 | [7] 0.013 | [8] -0.013 | IRAK-1-4 Inhibitor I -0.101 | ibrutinib -0.008 | [9] 0.029 | ralimetinib 0.014 | [10] 0.073 | [11] -0.018 | [12] 0.026 | [13] 0.194 | [14] -0.042 | [15] 0.024 | [16] -0.018

PGRMC2 isoform 2 (UniProt O15173)
inactive: erlotinib -0.003 | [1] -0.319 | [2] 0.038 | [3] 0.004 | [4] 0.011 | [5] -0.026 | [6] 0.014 | [7] 0.022 | [8] 0.044 | IRAK-1-4 Inhibitor I -0.003 | ibrutinib -0.005 | [9] 0.029 | ralimetinib -0.013 | [10] 0.047 | [11] 0.003 | [12] -0.009 | [13] -0.016 | [14] -0.001 | [15] -0.009 | [16] -0.02

PIGK (UniProt Q92643)
inactive: erlotinib 0.035 | [1] 0.015 | [2] -0.034 | [3] 0.001 | [4] -0.012 | [5] -0.025 | [6] -0.126 | [7] -0.006 | [8] 0.097 | IRAK-1-4 Inhibitor I 0.027 | ibrutinib 0.054 | [9] 0.025 | ralimetinib 0.014 | [10] -0.06 | [11] -0.059 | [12] 0.12 | [13] -0.035 | [14] 0.011 | [15] 0.077 | [16] -0.001

PICALM (UniProt Q13492)
inactive: erlotinib -0.019 | [1] -0.035 | [2] 0.02 | [3] -0.021 | [4] 0.01 | [5] -0.06 | [6] -0.014 | [7] -0.016 | [8] 0.001 | IRAK-1-4 Inhibitor I 0.026 | ibrutinib -0.023 | [9] 0.011 | ralimetinib -0.025 | [10] -0.039 | [11] -0.004 | [12] -0.018 | [13] 0.004 | [14] 0.021 | [15] -0.004 | [16] -0.005

PHF23 (UniProt Q9BUL5)
inactive: erlotinib -0.016 | [1] 0.007 | [2] -0.099 | [3] -0.018 | [4] -0.01 | [5] 0.005 | [6] -0.01 | [7] -0.065 | [8] -0.014 | IRAK-1-4 Inhibitor I 0.049 | ibrutinib 0.003 | [9] 0.024 | ralimetinib 0.015 | [10] -0.049 | [11] 0.049 | [12] -0.023 | [13] 0.024 | [14] 0.001 | [15] 0.074 | [16] -0.009

PIGS (UniProt Q96S52)
inactive: erlotinib 0.014 | [1] -0.037 | [2] -0.074 | [3] 0.004 | [4] 0.032 | [5] -0.038 | [6] -0.146 | [7] -0.038 | [8] 0.021 | IRAK-1-4 Inhibitor I 0.015 | ibrutinib 0.024 | [9] 0.02 | ralimetinib -0.044 | [10] -0.081 | [11] 0.01 | [12] 0.056 | [13] 0.073 | [14] -0.004 | [15] 0.003 | [16] 0.005

PIP4K2B (UniProt P78356)
inactive: erlotinib 0.038 | [1] -0.193 | [2] -0.021 | [3] 0.012 | [4] 0.096 | [5] 0.067 | [6] 0.013 | [7] 0.032 | [8] -0.02 | IRAK-1-4 Inhibitor I -0.019 | ibrutinib -0.002 | [9] 0.043 | ralimetinib 0.016 | [10] 0.023 | [11] -0.032 | [12] -0.043 | [13] -0.022 | [14] 0.087 | [15] -0.044 | [16] -0.031

PGP (UniProt A6NDG6)
inactive: erlotinib -0.008 | [1] 0.027 | [2] -0.016 | [3] 0.014 | [4] 0.01 | [5] 0.016 | [6] 0.038 | [7] 0.03 | [8] 0.005 | IRAK-1-4 Inhibitor I 0.008 | ibrutinib 0.002 | [9] -0.049 | ralimetinib 0.049 | [10] 0.053 | [11] 0.007 | [12] -0.037 | [13] 0.003 | [14] 0.002 | [15] -0.027 | [16] -0.018

PHB2 (UniProt Q99623)
inactive: erlotinib -0.01 | [1] 0.012 | [2] -0.012 | [3] -0.01 | [4] 0.007 | [5] 0.005 | [6] 0.031 | [7] 0.005 | [8] -0.012 | IRAK-1-4 Inhibitor I 0.002 | ibrutinib -0.008 | [9] 0.005 | ralimetinib -0.015 | [10] -0.009 | [11] -0.006 | [12] 0.004 | [13] 0.002 | [14] -0.006 | [15] -0.008 | [16] 0.003
